Results from patent CN110317268A.
No constants are given. Whether binding was seen depends on the method and setting. Some entries that bind do so weakly or less than the wild type.

The chains behind the UniProt entries cited, without tags or fusion partners. Residues count along the entry.
UniProt P0DPI1, residues 872-1296: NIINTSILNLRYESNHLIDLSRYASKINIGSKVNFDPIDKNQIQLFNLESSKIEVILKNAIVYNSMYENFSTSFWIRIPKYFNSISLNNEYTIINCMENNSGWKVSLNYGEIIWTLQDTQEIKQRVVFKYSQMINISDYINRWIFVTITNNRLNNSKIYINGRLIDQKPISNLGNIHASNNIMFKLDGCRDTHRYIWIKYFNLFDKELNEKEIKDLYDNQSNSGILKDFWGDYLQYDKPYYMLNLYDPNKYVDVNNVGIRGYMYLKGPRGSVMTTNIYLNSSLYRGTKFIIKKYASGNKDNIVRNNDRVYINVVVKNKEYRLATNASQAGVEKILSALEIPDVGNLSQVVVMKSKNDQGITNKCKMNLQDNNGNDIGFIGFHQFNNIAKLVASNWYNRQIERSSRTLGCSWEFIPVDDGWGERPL

Biological target: BoNT/AHc (A型肉毒毒素重链C端) (Clostridium botulinum) (UniProt P0DPI1)
Experiment: Western blot, 10 ng BoNT/AHc, BAS45 diluted 1:500

B1: 45号抗体 (中和A型肉毒毒素的鼠源单抗) (antibody, V domains shown)
VH: QVHLKESGPGLVAPSQSLSITCTVSGFSLSTYGVHWIRQPPGKGLEWLGVIWAVGSTNYNSALESRLNISKDNSQSQVFLRMTSLQTDDAMYYCASLPYGRFAYWGQGTLVTVSA
VL: SIVMTQTPRFLLVSAGDRITITCKASQNVNNDVAWYQQKPGQSPKLLIYYASNRYTGVPDRFSGSGYGTDFTFTINTVQAEDLAVYSCHQDYSSLTFGAGTKLEIK
In the case of B1, the binding is reported as “binds”.
